{
  "source": "PubChem BioAssay AID1259415",
  "about": "(National Center for Advancing Translational Sciences (NCATS), 2018)",
  "note": "About 18,000 (4.4%) of roughly 410,000 compounds were called active. This list was built around the results that the source calls inconclusive (neither active nor inactive); the mix of calls is not that of the screen. Rule as the data show it: active = activity change below about -60%; inconclusive = no clear call, values can overlap the other calls; inactive = above about -39%. % is scaled to controls: 0 for no effect and ±100 for the full control effect.",
  "data": [
    {"assay": "qHTS Assay for inhibitors of the human cytomegalovirus (HCMV)", "conditions": "HFF cells, HCMV-luciferase reporter, 72 h; at 57.5 µM; active compounds read low", "how_it_was_run": "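Steps: HFFs plated, 16 h 37C; compounds added; HCMV-luciferase added to MOI 1 PFU/cell; 72 h 37C; OneGlo reagent, 5 min room temperature; luminescence read, normalized to controls.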", "values": [
      {"smiles": "COc1cccc2cc(C(=O)CC3(O)C(=O)N(Cc4ccccc4)c4ccccc43)c(=O)oc12", "note": "(stereo not given)", "activity change, negative = inhibition": "inconclusive: -44.5%"},
      {"smiles": "Cc1ccc2sc(N(CCCN(C)C)C(=O)c3ccco3)nc2c1C", "activity change, negative = inhibition": "active: -61.9%"},
      {"smiles": "COc1ccc(-n2c(SCC(=O)Nc3ccccc3)nc3c(c2=O)SCC3)cc1", "activity change, negative = inhibition": "inactive: 49.1%"},
      {"smiles": "COc1cccc(C(=O)N(Cc2ccc(N(C)C)cc2)Cc2ccco2)c1", "activity change, negative = inhibition": "inconclusive: -55.8%"},
      {"smiles": "NC(Cc1ccccc1)c1nn[nH]n1", "note": "(stereo not given)", "activity change, negative = inhibition": "inconclusive: -41.8%"},
      {"smiles": "COC(=O)c1ccc(NC(=O)Nc2ccc3c(c2)nc(C)n3C)cc1", "activity change, negative = inhibition": "inconclusive: -45.3%"},
      {"smiles": "Cc1ccc(/C=C2\\SC(=S)N(CCC(=O)N3CCOCC3)C2=O)cc1", "activity change, negative = inhibition": "inconclusive: -55%"},
      {"smiles": "COc1ccc(-c2csc3ncnc(NCCO)c23)cc1", "activity change, negative = inhibition": "active: -86.6%"},
      {"smiles": "O=C(OCc1ccccc1F)c1ccc2c(c1)-c1ccccc1C2=O", "activity change, negative = inhibition": "inactive: 45%"},
      {"smiles": "Cc1ccc(S(=O)(=O)N(CC(=O)N/N=C/c2cccc(C)c2)c2cccc3cccnc23)cc1", "activity change, negative = inhibition": "inconclusive: -41.3%"},
      {"smiles": "COC(=O)c1ccc(COc2cc([N+](=O)[O-])cc3cccnc23)o1", "activity change, negative = inhibition": "inconclusive: -44.7%"},
      {"smiles": "COc1ccc(N2C(=O)C(=O)N(c3ccc(OC)cc3)P2(=O)N(CCCl)CCCl)cc1", "activity change, negative = inhibition": "active: -74.8%"},
      {"smiles": "CCCn1nnc(NC(=O)c2cccc(OCC)c2)n1", "activity change, negative = inhibition": "inactive: 75.2%"},
      {"smiles": "Cc1cc(C)cc(NC(=O)CSc2nc3c(c(=O)n2C)SC(C)C3)c1", "note": "(stereo not given)", "activity change, negative = inhibition": "inconclusive: -54.1%"},
      {"smiles": "COc1ccc(Cl)cc1NC(=O)CN(c1cccc(C)c1C)S(C)(=O)=O", "activity change, negative = inhibition": "inconclusive: -50%"},
      {"smiles": "Cc1nc(N/N=C/c2ccc(O)cc2O)cc(N2CCOCC2)n1", "activity change, negative = inhibition": "inconclusive: -41.3%"},
      {"smiles": "CCN(C(C)=O)c1cnc(C=NNC(N)=S)c2ccccc12", "activity change, negative = inhibition": "active: -96.7%"},
      {"smiles": "CCc1ccc(C2N=C(N)Nc3nc4ccccc4n32)cc1", "note": "(stereo not given)", "activity change, negative = inhibition": "active: -67%"},
      {"smiles": "COc1ccccc1NC(=O)Cc1nnc(SCC(=O)c2ccccc2)n1C", "activity change, negative = inhibition": "inactive: 6.9%"},
      {"smiles": "Cc1cc([N+](=O)[O-])nn1CC(=O)Nc1ccc(F)cc1", "activity change, negative = inhibition": "inconclusive: -50.5%"},
      {"smiles": "Cc1cc(Cl)ccc1NC(=S)NCCN1CCOCC1", "activity change, negative = inhibition": "inconclusive: -48.4%"},
      {"smiles": "CC(NC(=O)c1ccco1)C(=O)N1CCN(c2cccc(C(F)(F)F)c2)CC1", "note": "(stereo not given)", "activity change, negative = inhibition": "inconclusive: -53.7%"},
      {"smiles": "CN(Cc1ccccc1)C(=O)C(=O)Nc1ccc2nc3n(c(=O)c2c1)CCCCC3", "activity change, negative = inhibition": "inactive: -27.9%"},
      {"smiles": "COc1ccc(CN(C)C(=O)c2cccc(NC(=O)CC3SC(N4CCCCC4)=NC3=O)c2)c(OC)c1", "note": "(stereo not given)", "activity change, negative = inhibition": "active: -76.6%"},
      {"smiles": "Cc1ccc(CNC(=O)c2cc3cc(C)ccc3n2C)cc1", "activity change, negative = inhibition": "inconclusive: -58.6%"},
      {"smiles": "CCSc1ccc([C@@H]2[C@H]3C(=O)N(C)C(=O)[C@H]3[C@]3(C(=O)OC)CCCCN23)cc1OC", "activity change, negative = inhibition": "inactive: -0.409%"},
      {"smiles": "CCOc1ccccc1NS(=O)(=O)c1ccc2c(c1)N(C)CCO2", "activity change, negative = inhibition": "inconclusive: -45.7%"},
      {"smiles": "O=C(CN1C(=O)NC2(CCCC2)C1=O)N1CCN(c2cccc(C(F)(F)F)c2)CC1", "activity change, negative = inhibition": "inconclusive: -42.2%"},
      {"smiles": "COc1cc(Cl)c(NS(=O)(=O)c2c(C(=O)N3CCCC3)c(C)n(C)c2C)c(OC)c1", "activity change, negative = inhibition": "inconclusive: -41.4%"},
      {"smiles": "O=C(O)c1cccc(NC(=S)NCc2ccccc2)c1", "activity change, negative = inhibition": "inconclusive: -44.7%"},
      {"smiles": "Cn1nc([N+](=O)[O-])nc1S(C)(=O)=O", "activity change, negative = inhibition": "inconclusive: -57.5%"},
      {"smiles": "Cc1nonc1NC(=O)CSc1nc(C2CCCCC2)nc2ccccc12", "activity change, negative = inhibition": "active: -88.3%"},
      {"smiles": "O=C(NC1CCCCC1)c1cccc(S(=O)(=O)N2CCCCC2)c1", "activity change, negative = inhibition": "inconclusive: -53.8%"},
      {"smiles": "Cc1cc(O)ccc1Nc1nc(-c2sc(N)nc2C)cs1", "activity change, negative = inhibition": "inactive: 11.9%"},
      {"smiles": "CC(C)N(Cc1cnn(C)c1)C(=O)c1ccc(OC2CCN(Cc3ccccn3)CC2)cc1", "activity change, negative = inhibition": "inconclusive: -53.9%"},
      {"smiles": "COC(=O)[C@]12CCCCC=C1N(Cc1cccc3ccccc13)C(=O)[C@H](CC(=O)NCc1cccc(C(F)(F)F)c1)C2", "activity change, negative = inhibition": "inactive: 34.8%"},
      {"smiles": "CCOc1ccccc1C(=O)NCC(=O)NCCCc1ccccc1", "activity change, negative = inhibition": "inconclusive: -53.9%"},
      {"smiles": "Cc1ccc(CN(Cc2ccco2)C(=S)NCC(=O)NC2CC2)cc1", "activity change, negative = inhibition": "inconclusive: -49.9%"},
      {"smiles": "CC(C)CC(=O)Nc1ccc(Nc2ccccc2)cc1", "activity change, negative = inhibition": "inactive: 36%"},
      {"smiles": "Cc1c(C(=O)NCc2ccc(F)cc2)oc2ccc(S(=O)(=O)N3CCOCC3)cc12", "activity change, negative = inhibition": "inconclusive: -45.7%"},
      {"smiles": "O=C(Nc1ccccc1)c1nnsc1S(=O)c1ccc(Cl)cc1", "note": "(stereo not given)", "activity change, negative = inhibition": "active: -104%"},
      {"smiles": "Cc1ccc(N2CCN(C(=O)c3ccccc3F)CC2)c(C)c1", "activity change, negative = inhibition": "inactive: 15.1%"},
      {"smiles": "Nc1nonc1-n1nnc(C(=O)N/N=C/c2ccc(OCc3ccccc3)cc2)c1CN1CCCCC1", "activity change, negative = inhibition": "inactive: 10.3%"},
      {"smiles": "CCOc1ccc2ncc(S(=O)(=O)c3ccccc3)c(N3CCC4(CC3)OCCO4)c2c1", "activity change, negative = inhibition": "inconclusive: -42.5%"},
      {"smiles": "COc1ccc(NC(=O)c2cccc3c2C(=O)c2ccc(-c4ccc(F)cc4OCc4ccccc4)cc2S3(=O)=O)cc1", "activity change, negative = inhibition": "active: -64.3%"},
      {"smiles": "COc1ccccc1OCCSc1nc2ccccc2n1CC(N)=O", "activity change, negative = inhibition": "inactive: 6.64%"},
      {"smiles": "CCn1cc(S(=O)(=O)c2ccccc2)c(=O)c2cc(F)c(N3CCCC3)cc21", "activity change, negative = inhibition": "inconclusive: -47.8%"},
      {"smiles": "CCc1ccc(/C(C)=N/NC(=O)c2ccc(-n3cnnn3)cc2)cc1", "activity change, negative = inhibition": "inconclusive: -43.7%"},
      {"smiles": "COC(c1ccccc1)c1c(-c2ccccc2)nn(C)c1Cl", "note": "(stereo not given)", "activity change, negative = inhibition": "inactive: -23.4%"},
      {"smiles": "COc1cccc(C(NC(C)=O)c2nc(-c3ccc4c(c3)OCO4)cs2)c1", "note": "(stereo not given)", "activity change, negative = inhibition": "inactive: 12%"},
      {"smiles": "O=C1C(=O)N(Cc2cccnc2)C(c2cccc(F)c2)/C1=C(/O)c1ccc2c(c1)OCO2", "note": "(stereo not given)", "activity change, negative = inhibition": "inconclusive: -47.9%"},
      {"smiles": "COc1cc2c(cc1OC)C(C)N(C(=O)c1ccc(Cl)c(S(=O)(=O)N3CCCCC3)c1)CC2", "note": "(stereo not given)", "activity change, negative = inhibition": "active: -63.7%"},
      {"smiles": "CCOc1ccccc1NC1=C(Cl)C(=O)N(c2ccccc2)C1=O", "activity change, negative = inhibition": "inconclusive: -43%"},
      {"smiles": "COc1ccc(O)c(/C=N/NC(=O)c2ccc(OCc3cccc(Br)c3)cc2)c1", "activity change, negative = inhibition": "active: -97.3%"},
      {"smiles": "OCCN1CCN(c2ncnc3c2ncn3[C@H]2CN(Cc3ccco3)C[C@@H](CO)O2)CC1", "activity change, negative = inhibition": "inactive: -21.8%"}
    ]}
  ]
}
